The target of this test is T1, recombinant glutathione S-transferase (GST) NudE (UniProt Q9CZA6).
T1 sequence: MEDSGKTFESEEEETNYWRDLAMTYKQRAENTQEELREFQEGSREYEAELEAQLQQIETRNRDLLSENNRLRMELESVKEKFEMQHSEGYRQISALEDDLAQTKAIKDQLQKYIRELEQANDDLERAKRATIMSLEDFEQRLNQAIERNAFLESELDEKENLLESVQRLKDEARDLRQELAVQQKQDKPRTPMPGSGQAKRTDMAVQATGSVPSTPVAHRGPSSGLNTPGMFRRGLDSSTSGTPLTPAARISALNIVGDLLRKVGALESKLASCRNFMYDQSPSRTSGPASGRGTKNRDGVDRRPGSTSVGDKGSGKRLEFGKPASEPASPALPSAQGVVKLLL
As to the kind of experiment: pull-down; 1 ug/ul GST-NudE or GST-CC1 with glutathione agarose 4B and pre-cleared whole brain lysate of P0 wild-type or Loa/Loa mice; phosphate-glutamate buffer (10 mM sodium phosphate, 100 mM sodium glutamate, pH 7.0, 1 mM MgSO4, 1 mM EDTA, 1 mM DTT, 0.2% NP-40), 4°C, 2 hours; western blot of supernatants and pellets; only the target purified. (Immunoblotting shows a protein as a band on a membrane.)

In PMC3127822 one finds binding data, which are given here for one molecule.

Results are given in words; binding and its absence hold for the method and conditions named. Binding seen in cells or lysates may run through a third protein. Some binding calls cover weakened binding; strength is not graded here. Sequences can lack the tags named with a protein.

B1: LIS1 (protein, UniProt P63005 1-410)
chain: MVLSQRQRDELNRAIADYLRSNGYEEAYSVFKKEAELDMNEELDKKYAGLLEKKWTSVIRLQKKVMELESKLNEAKEEFTSGGPLGQKRDPKEWIPRPPEKYALSGHRSPVTRVIFHPVFSVMVSASEDATIKVWDYETGDFERTLKGHTDSVQDISFDHSGKLLASCSADMTIKLWDFQGFECIRTMHGHDHNVSSVAIMPNGDHIVSASRDKTIKMWEVQTGYCVKTFTGHREWVRMVRPNQDGTLIASCSNDQTVRVWVVATKECKAELREHEHVVECISWAPESSYSSISEATGSETKKSGKPGPFLLSGSRDKTIKMWDVSTGMCLMTLVGHDNWVRGVLFHSGGKFILSCADDKTLRVWDYKNKRCMKTLNAHEHFVTSLDFHKTAPYVVTGSVDQTVKVWECR
Consider B1, for which the binding result is reported as “binds”.
